Here are results for one substance from publication PMC7661038.

Protein sequences, listed by entry. Tags and fused reporters are not part of them.
UniProt Q6XZL8: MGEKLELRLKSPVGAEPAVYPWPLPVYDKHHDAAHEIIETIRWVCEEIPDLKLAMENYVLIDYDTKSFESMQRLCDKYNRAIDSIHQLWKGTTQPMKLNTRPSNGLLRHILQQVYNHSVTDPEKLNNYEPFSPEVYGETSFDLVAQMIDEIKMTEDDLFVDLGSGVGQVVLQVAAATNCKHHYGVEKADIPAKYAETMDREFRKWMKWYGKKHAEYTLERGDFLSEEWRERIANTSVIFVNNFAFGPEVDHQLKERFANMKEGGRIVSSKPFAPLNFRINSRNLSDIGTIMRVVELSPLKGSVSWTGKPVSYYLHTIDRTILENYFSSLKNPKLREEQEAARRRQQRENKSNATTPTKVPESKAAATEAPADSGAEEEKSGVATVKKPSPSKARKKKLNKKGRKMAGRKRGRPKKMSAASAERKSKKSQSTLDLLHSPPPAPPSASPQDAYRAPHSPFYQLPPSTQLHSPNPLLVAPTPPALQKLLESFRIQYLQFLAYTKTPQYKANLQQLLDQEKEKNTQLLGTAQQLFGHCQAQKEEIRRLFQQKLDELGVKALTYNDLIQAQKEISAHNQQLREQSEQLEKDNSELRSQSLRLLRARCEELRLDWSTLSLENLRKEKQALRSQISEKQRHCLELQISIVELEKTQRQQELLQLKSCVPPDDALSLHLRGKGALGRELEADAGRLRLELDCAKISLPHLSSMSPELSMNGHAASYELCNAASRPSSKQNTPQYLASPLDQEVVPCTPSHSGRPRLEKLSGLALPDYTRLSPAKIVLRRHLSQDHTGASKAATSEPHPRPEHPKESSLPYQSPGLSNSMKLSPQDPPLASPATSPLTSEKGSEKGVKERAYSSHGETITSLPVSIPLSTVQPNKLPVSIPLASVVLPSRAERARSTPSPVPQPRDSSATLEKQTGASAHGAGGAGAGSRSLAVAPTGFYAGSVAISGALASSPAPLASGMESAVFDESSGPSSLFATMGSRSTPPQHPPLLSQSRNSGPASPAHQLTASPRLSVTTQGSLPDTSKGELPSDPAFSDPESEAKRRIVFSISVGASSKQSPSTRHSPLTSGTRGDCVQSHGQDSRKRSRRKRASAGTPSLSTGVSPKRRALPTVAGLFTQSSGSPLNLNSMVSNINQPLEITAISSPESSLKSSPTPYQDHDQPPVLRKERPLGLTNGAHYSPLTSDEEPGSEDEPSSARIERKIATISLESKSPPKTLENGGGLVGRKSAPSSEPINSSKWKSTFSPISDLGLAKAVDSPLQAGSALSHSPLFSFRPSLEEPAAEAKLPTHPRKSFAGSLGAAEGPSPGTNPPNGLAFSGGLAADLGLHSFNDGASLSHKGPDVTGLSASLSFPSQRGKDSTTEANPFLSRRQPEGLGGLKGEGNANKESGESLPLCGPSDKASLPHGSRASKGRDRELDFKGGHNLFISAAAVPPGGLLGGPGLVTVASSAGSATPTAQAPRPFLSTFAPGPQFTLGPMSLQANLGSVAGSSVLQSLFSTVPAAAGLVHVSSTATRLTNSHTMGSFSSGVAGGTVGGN

Results are given in words; binding and its absence hold for the method and conditions named. Binding seen in cells or lysates may run through a third protein. A yes stands for co-enrichment or nearness to the bait. Other partners may have been found.

This assay has as its target T1, Zc3h10-TAP (mouse) (UniProt Q8R205).
T1 sequence: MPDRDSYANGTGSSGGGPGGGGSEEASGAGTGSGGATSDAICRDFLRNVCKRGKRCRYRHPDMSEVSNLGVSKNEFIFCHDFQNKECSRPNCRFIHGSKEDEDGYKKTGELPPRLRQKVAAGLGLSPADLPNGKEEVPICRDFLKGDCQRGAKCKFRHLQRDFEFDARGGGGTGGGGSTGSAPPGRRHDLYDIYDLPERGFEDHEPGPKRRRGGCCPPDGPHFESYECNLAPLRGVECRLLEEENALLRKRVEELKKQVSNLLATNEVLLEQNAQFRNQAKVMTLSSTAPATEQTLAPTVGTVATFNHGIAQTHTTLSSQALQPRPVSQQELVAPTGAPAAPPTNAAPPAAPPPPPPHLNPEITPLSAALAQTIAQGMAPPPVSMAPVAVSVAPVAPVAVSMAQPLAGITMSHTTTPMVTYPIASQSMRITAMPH
Put plainly: affinity purification with mass spectrometry; Zc3h10-TAP from transfected HEK293 lysate bound to Streptavidin resin, resin re-incubated overnight with 200 µg of BAT nuclear extracts in SBB; sequential (tandem) purification, SDS-PAGE, bands specific to the Zc3h10-TAP lane excised and identified by mass spectrometry.

Turning to “endogenous Dot1l (from UniProt Q6XZL8 1-1540) (enzyme)”, the binding entry is on record as “binds”.
